Experimental data taken from patent US20120141435A1, “USE OF OLIVE LEAF EXTRACTS IN A PHARMACEUTICAL COMPOSITION FOR INDUCING ANGIOGENESIS AND VASCULOGENESIS” (SANIDAD Y RESIDENCIAS 21, S.A., priority 2009, published 2012).
At least one structure is not confirmed: it was looked up by name or label, or the drawing left a doubt.

Test system: 6 mm excisional wounds on the back of db/db mice
Assay: Excisional wound healing in db/db mice (digital planimetry)
Assay type: in vivo, mouse
Conditions: topical on days 0, 2, 4, 6, 8, 10e-2, 10e-5, 10e-7 m oleuropein, treated (right) and untreated (left) wound, vs PBS
Description: Female db/db mice (BKS.Cg-m+/+Lepr^db) aged 10 to 12 weeks were used. They were obtained through Charles River Laboratories (Spain), the average weight of the animals upon reception was 35.64 g. Throughout the entire study, the animals were kept in animal houses particularly designed for allowing control of the animals' environment, such as relative humidity (30-70%), temperature (22±2° C.), air pressure, number of renewals and light period ( 12/12 hours of light/darkness). Access to water was “ad libitum” and the diet was a standard dry pellet diet for rats supplied by PanLab (Barcelona, Spain). After the acclimatization period, the mice were randomly distributed into the different study groups. […]
On day 0 of the experiment, two 6 mm excisional wounds were made on the back of every mouse under aseptic conditions and using surgical instruments. […] The wound healing process was tracked and evaluated throughout the experiment (see FIG. 3). […]
In order to track the wound healing, a digital planimetry method was used whereby the area of every wound was quantified. The inter-group differences have been determined by means of a two-way ANOVA statistical analysis followed by a Bonferroni post-hoc analysis. […]

C/C=C1/[C@H](O[C@@H]2O[C@H](CO)[C@@H](O)[C@H](O)[C@H]2O)OC=C(C(=O)OC)[C@H]1CC(=O)OCCc1ccc(O)c(O)c1 [oleuropein]
wound healing (wound area): very positive effect
